Measurements: patent publication US20190309034A1
These are yes or no findings as the source states them, for the method shown. A result given as binding can be weak or reduced; the word gives no strength.

These binders were tested against Recombinant Human BAFF (epitope mapping) (human) (assay: HXMS, BAFF with equimolar antibody).

binding	Binder
binds	227D5A7 (antibody, V domains shown) VH: QVQLQQPGAELVKPGASVKLSCKASGYTFSIFCVHWVQQRPGRGLEWIGRIDPSSGGTKYNEKFESKATLTVDKSSSTAYMQLSSLTPEDSAVYYCARGEDLLVRTDALDYWGQGSSVTVSS VL: DIVMTQSQKFMSTTVGDRVSITCKASQNAGAAVAWFQQKPGQSPKLLIYSASNRYTGVPDRFTGSGSGTDFTLTISNVQSEDLADYICQQYRSFPRTFGGGTKLEIK
binds	250E5A11 (antibody, V domains shown) VH: QVQLQQPGTELVKPGASVKLSCKASGYTFSIFCIHWVQQRPGRGLEWIGRIDPSSGGTKYNERFENKATLTVDKSSSTAYMQLSSLTFEDSAVYYCARGEDLLVRTDAMDYWGQGTSVTVSS VL: DIVMTQSQKFMSTTVGDRVSITCKASQNAGAAVAWFQQKPGQSPKLLIYSASNRYTGVPDRFTGSGSGTDFTLTITNVQSEDLADYICQQYRSFPRTFGGGTKLEIK
binds	210D9B8 (antibody, V domains shown) VH: QVQLQQPGTEFVKPGASVKLSCEASGYTFITYWMHWVKQRPGRGLEWIGGIDPNSGVIKYNEKFKSKATLTVDKPSSTAYMQLSSLTSEDSAVYYCARGEDLLIRTDAMDYWGQGTSVTVSS VL: DIVMTQSQKFVSTTLGDRVSITCKASQSVGIAVAWYQQKPGHSPNLLIFSTSNRYTGVPDRFTGSGSGTDFTLTISDVQSEDLADYFCQQYSRYPRTFGGGTKLEIK
binds	235F5B9 (antibody, V domains shown) VH: QVQLQQPGAELVKPGASVKLSCKASGYSFSTFFIHWIQQRPGRGLEWIGRIDPNSGATKYNEKFESKATLTVDKPSSTAYMHLSSLTSEDSAVYYCARGEDLLIRTDALDYWGQGTSVTVSS VL: DIVMTQSQKIMSTTVGDRVSITCKASQNAGIDVAWFQQKPRQSPKLLIFSKSNRYTGVPDRFAGSGSGTDFTLTIYNVQSEDLADYFCLQYRSYPRTFGGGTKLEIK
binds	227D3B11 (antibody, V domains shown) VH: QVQLQQPGAELVKPGASVKLSCKASGYSFSTFFIHWIQQRPGRGLEWIGRIDPNSGGTKYNEKFESKATLTVDKPSSTAYMHLSSLTSEDSAVYYCARGEDLLIRTDAMDYWGQGTSVTVSS VL: DIVMTQSQKIMSTTVGDRVSITCKASQNAGIDVAWFQQKPRQSPKLLIFSTSNRYTGVPDRFAGSGSGTDFTLTIYNVQSEDLADYFCLQYRSYPRTFGGGTKLEIK
binds	206G9A10 (antibody, V domains shown) VH: QVQLQQPGAELVKPGASVKLSCKASGYTFSIFCIHWVQQRPGRGLEWIGRIDPSSGGTKYNEKFESKATLTVDKSSSTAYMQLSSLTSEDSAVYYCARGEDLLVRTDAMDYWGQGTSVTVSS VL: DIVMTQSQKFMSTTVGDRVSITCKASQNAGAAVAWFQQKPGQSPKLLIYSASNRYTGVPDRFTGSGSGTDFTLTISNVQSEDLADYICQQYRSYPRTFGGGTKLEIK
binds	217H12A7 (antibody, V domains shown) VH: QVQLQQPGAELVKPGASVKLSCKASGYTFSTFLIHWVQQRPGRGLEWIGRIDPNSGGTKYNEKFERKVTLTVDKPSSTAYMQLSSLTSEDSAVYYCARGEDLLLRTDAMDYWGQGTSVTVSS VL: DIVMTQSQKFMSTTVGDRVSITCKASQNAGTAVAWFQQKPGQSPKLLIYSAFNRYTGVPDRFTGSGSGTDFTLTISNMQSEDLADYICQQYRSYPRTFGGGTKLEIK
binds	13J018-1A4 (antibody, V domains shown) VH: QVQLQQSGPEVVRPGASVKISCKAPDHIFSIHWMQWVRQRPGPGLEWIGEIFPGSGTTDYNEKFKGKATVTVDRGSRSAYMQFNSLTSEDSAVYFCASGAFDYWGQGTTLTVSS VL: DIQMTQSPSSLSASLGERVSLTCRASQDIGNRLNWLQQEPDGTIKRLIYATSSLDSGVPKRFSGSRSGSDYSLTISSLESEDFVDYYCLQYASSPFTFGTGTKLEIK
